Reference: US7666619B2, “Compounds and methods for regulating bacterial growth and pathogenesis” (Princeton University, priority 2000, dated 2010)
Values after ≈ are worked out from the molar mass of the structure shown.

Tested on: Staphylococcus aureus ATCC 25923
Assay: Antibiotic susceptibility assay (NCCLS broth microdilution)
Format: cell-based
Conditions: ATCC25923, antibiotic alone
Description: Antimicrobial susceptibility testing was conducted according to the National Committee for Clinical Laboratory Standards (NCCLS) reference method “Broth Dilution Procedure (Microdilution)” published January 1977 (UPDATE VERSION). The method yields a minimum inhibitory dose (MIC) required for complete inhibition of bacterial growth. MICs were determined using a dilution series of antibiotic, in which all of the wells contained a constant concentration of the inhibitor compound was maintained. In addition, before the instant susceptibility tests were performed, the inhibitor compounds were tested in the appropriate inhibitor screens (See, for example, FIG. 32 for the AI-2 inhibitor 2-ethyl-4-hydroxy-5-methyl-3(2H)-furanone). […] Experiments were conducted in 96 well microtiter plates using a final volume of 0.1 ml/well. Assays were conducted using either Mueller-Hinton broth, Todd-Hewitt broth, or Nutrient Broth (Difco). The bacterial innoculum was prepared from a log phase overnight culture of Streptococcus pyogenes ATCC 19615 or Staphylococcus aureus ATCC 25923. […] MIC values were determined by spectrophotometric measurements of absorbance at 600 nm. […] Fold-changes in MIC concentration were determined by comparing the MIC for antibiotic and quorum inhibitor compounds with the MIC measured using antibiotic alone.

CC1(C)S[C@@H]2[C@H](NC(=O)[C@H](N)c3ccccc3)C(=O)N2[C@H]1C(=O)O [ampicillin]
MIC: 1.6 µg/mL (≈ 4.58 µM)
